Test results: patent publication US20210378591A1, “PROCESS FOR VISUAL DETERMINATION OF TISSUE BIOLOGY” (UNIVERSITY COLLEGE DUBLIN, NATIONAL UNIVERSITY OF IRELAND, …, priority 2018, published 2021)

Assay: Dynamic visual analysis (DVA) of ICG NIR fluorescence intensity, rectal lesion versus healthy background tissue
Conditions: over 25-30 minutes

SMILES: CC1(C)C(/C=C/C=C/C=C/C=C2\N(CCCCS(=O)(=O)O)c3ccc4ccccc4c3C2(C)C)=[N+](CCCCS(=O)(=O)[O-])c2ccc3ccccc3c21 [ICG, indocyanine green]
- logarithmic trend lines of intensity trace, lesion versus background tissue (benign lesions, washout period): convergent over time
- logarithmic trend lines of intensity trace, lesion versus background tissue (cancerous tissue): divergent
